Reference: PubChem BioAssay AID1487 (National Center for Advancing Translational Sciences (NCATS), 2009)
Where “and” joins values, the source holds several entries; their conditions need not be identical. Equal entries are not always repeated. The list shows a part of the results. Further columns of the screen follow, without active or inactive calls. Most of these compounds were active or inconclusive in the main read-out, so they are no random draw. Words in brackets tell the shape of the fitted curve; partial curves, single points and poor fits give uncertain potencies.

Assay: qHTS Assay for Modulators of Lamin A Splicing
Details: HeLa LMNA splicing GFP/RFP minigene ratio, 48 h
Procedure, shortened: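 S3 HeLa stable clones carrying a lamin A-EGFP splicing minigene plus DsRed2 were seeded at 600 cells/well in Opti-MEM with 2% FBS, pin-dosed and incubated 48 h at 37°C. Acumen cytometry (488 nm) gave the GFP/RFP total-intensity ratio.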

[1] = measured here: RFP viability control channel
[2] = measured here: GFP splicing reporter channel

| Compound | AC50 [1] | AC50 [2] |
| --- | --- | --- |
| Cc1ccc2nc(NC(=O)CSc3cc(C)[nH]c(=O)n3)sc2c1 | 0.0355 µM [rising, full curve] | – |
| CC(=O)c1ccc(NC(=O)C2CCN(S(=O)(=O)c3c(C)noc3/C=C/c3ccc(C)cc3)CC2)cc1 | – | 22.4 µM [falling, partial curve, poor fit] |
| COc1ccc(C(=O)CC(=O)C(=O)NCCc2cccc(C)c2)cc1 | 35.5 µM [rising, single point] | – |
| CC(=O)n1c2c(c3ccccc31)OC(N)=C(C#N)C2c1ccc(C(C)C)cc1 (stereo not given) | 25.1 µM [falling, single point] | 17.8 µM [falling, single point] |
| Cc1nnc(C)c2c(C)n(C(C)c3ccccc3)c(C)c12 (stereo not given) | 11.2 µM [rising, single point] | 11.2 µM [rising, single point] |
| O=C(CSc1nc(-c2cccs2)cc(C(F)(F)F)n1)Nc1cc(OCC(F)(F)C(F)F)cc([N+](=O)[O-])c1 | 11.2 µM [rising, partial curve, poor fit] | 10 µM [rising, partial curve, poor fit] |
| CCOC(=O)C(=CN=C(N)Nc1nc2ccccc2o1)C(=O)OCC | – | 0.1 µM [rising, full curve, poor fit] |
| COc1ccc(Cn2c(-c3ccc(OC)cc3)nc3ccccc32)cc1 | 22.4 µM [rising, single point] | 10 µM [rising, single point] |
| O=C(COC(=O)c1ccccc1C(=O)N1CCN(c2ccc(F)cc2)CC1)NCc1ccccc1 | – | 0.891 µM [falling, full curve, poor fit] |
| Cc1ccc(C)c(-n2nnnc2SCC(=O)Nc2cccc(-c3nnc4n3CCCCC4)c2)c1 | 12.6 µM [rising, single point] | 11.2 µM [rising, partial curve] |
| Cc1cc(C)n(-c2ccn(Cc3ccc(Cl)cc3Cl)c(=O)n2)n1 | 15.8 µM [rising, partial curve] | 14.1 µM [rising, partial curve] |
| Cc1nn(Cc2ccc(Cl)c(Cl)c2)c(C)c1NC(=O)c1cc(-c2ccc3c(c2)OCO3)on1 | 5.01 µM [rising, single point] | 3.16 µM [rising, single point] |
| O=C(/C(=N\Nc1ccc(Br)cc1)Sc1nnnn1-c1ccccc1)c1ccccc1 | 15.8 µM [rising, partial curve] | – |
| O=C(c1ccc(F)cc1)C1CCN(CCn2c(=O)[nH]c3ccccc3c2=O)CC1 | 3.55 nM [falling, full curve, poor fit] and 2.51 µM [rising, full curve] | 501 nM [falling, partial curve, poor fit] and 12.6 µM [falling, single point] |
| CCn1nc(C)c2c(-c3ccccc3)cc(=O)n(C(C)C(=O)Nc3cc(C)ccc3C)c21 (stereo not given) | – | 39.8 µM [falling, partial curve, poor fit] |
| O=C(NCCc1ccc(Cl)cc1)C1CCN(S(=O)(=O)c2ccc(-n3cnnn3)cc2)CC1 | 11.2 µM [rising, partial curve] | 11.2 µM [rising, partial curve] |
| CCCCOc1ccc(C(=O)Nc2cccc(C)n2)cc1 | 15.8 µM [rising, partial curve] | 7.08 µM [rising, partial curve] |
| O=C(CCN1CCN(C/C=C/c2ccccc2)CC1)Nc1ccccc1F | 0.0251 µM [rising, full curve, poor fit] | 0.01 µM [rising, full curve, poor fit] |
| FC(F)(F)C(Oc1nc(NC2CCCCC2)nc(N2CCOCC2)n1)C(F)(F)F | 20 µM [rising, single point] | 17.8 µM [rising, single point] |
| CCS(=O)(=O)NCC(c1ccco1)N1CCN(c2ccc(F)cc2)CC1 (stereo not given) | 15.8 µM [rising, single point] | – |
| CC(=O)C1=C(c2cccc([N+](=O)[O-])c2)N(C(C)=O)n2c(nnc2-c2ccc(C)cc2)S1 | 14.1 µM [rising, partial curve] | – |
| O=C(NCc1ccc2c(c1)OCO2)c1ccc(CS(=O)(=O)c2cccc(C(F)(F)F)c2)o1 | 31.6 µM [rising, single point] | – |
| O=C(Cn1nc(-c2ccccc2)ccc1=O)Nc1cccc(NC(=O)c2ccccn2)c1 | 17.8 µM [falling, partial curve] | 17.8 µM [falling, partial curve] |
| Cc1ccc([N+](=O)[O-])cc1N(CC(=O)Nc1ccc(S(=O)(=O)Nc2cccc(C(F)(F)F)c2)cc1)S(C)(=O)=O | – | 35.5 µM [falling, partial curve, poor fit] |
| Cc1nc2ccccc2n1/N=C/c1ccc([N+](=O)[O-])s1 | – | 20 µM [rising, single point] |
| CCCOc1ccc(-c2cn3ccccc3n2)cc1[N+](=O)[O-] | – | 0.0355 µM [falling, full curve, poor fit] |

Among those listed so far, three have an aryl thioether with sulfur outside any ring:

| Compound | AC50 [1] | AC50 [2] |
| --- | --- | --- |
| Cc1ccc2nc(NC(=O)CSc3cc(C)[nH]c(=O)n3)sc2c1 | 0.0355 µM [rising, full curve] | – |
| O=C(CSc1nc(-c2cccs2)cc(C(F)(F)F)n1)Nc1cc(OCC(F)(F)C(F)F)cc([N+](=O)[O-])c1 | 11.2 µM [rising, partial curve, poor fit] | 10 µM [rising, partial curve, poor fit] |
| Cc1ccc(C)c(-n2nnnc2SCC(=O)Nc2cccc(-c3nnc4n3CCCCC4)c2)c1 | 12.6 µM [rising, single point] | 11.2 µM [rising, partial curve] |

The listing continues.

| Compound | AC50 [1] | AC50 [2] |
| --- | --- | --- |
| CC(C)n1c(O)c(N=NC(=O)Cc2csc(N3CCOCC3)n2)c2ccccc21 | 2.82 µM [rising, full curve] | – |
| CCc1ccc(C(C)NC(=O)c2ccc(F)cc2)cc1 (stereo not given) | 0.891 µM [rising, single point] | – |
| Cc1cc(C(=O)CSc2nc3ccccc3c(=O)n2C)c(C)n1Cc1ccc2c(c1)OCO2 | 1.26 µM [rising, full curve] | – |
| COc1ncccc1C(=O)N1CCCC(C(=O)c2cccc(OC(C)C)c2)C1 (stereo not given) | 1.26 µM [falling, full curve, poor fit] | 0.794 µM [falling, full curve, poor fit] |
| COc1cccc(CN(c2ccc3c(c2)CCC3)S(=O)(=O)c2ccc(-n3cnnn3)c(OC)c2)c1 | 17.8 µM [rising, single point] | – |
| NS(=O)(=O)c1ccc(N2N=C(c3ccc(Br)cc3)CC2c2ccc(F)cc2)cc1 (stereo not given) | 35.5 µM [falling, single point] | 28.2 µM [falling, single point] |
| CC(c1ccccc1F)n1cc(C(=O)NCCCc2nc3ccccc3[nH]2)nn1 (stereo not given) | 0.00316 µM [falling, full curve, poor fit] | – |
| O=C(O)c1ccc2nc(-c3ccccc3)sc2c1 | 0.158 µM [rising, full curve, poor fit] | – |
| CC1CCN(C(=O)CCc2ccc(Oc3cc([N+](=O)[O-])cc([N+](=O)[O-])c3)cc2)CC1 | 25.1 µM [rising, single point] | 14.1 µM [rising, single point] |
| Cc1sc2ncnc(N3CCCCC3)c2c1C | 35.5 µM [rising, single point] | – |
| O=C(CSc1cccc2cccnc12)N/N=C/c1ccc(F)cc1 | – | 0.355 µM [rising, full curve, poor fit] |
| COc1ccc(-c2nnc(NC(=O)c3ccc(S(=O)(=O)N4CCCc5ccccc54)cc3)o2)cc1 | 15.8 µM [rising, partial curve] | – |
| CC(C)S(=O)(=O)c1ccc(C(=O)Nc2ccc(F)cc2F)cn1 | 25.1 µM [falling, single point] | – |
| CCNC(=O)NC(=O)C(C)Oc1ccc(Br)cc1Br (stereo not given) | 15.8 µM [falling, single point] | 17.8 µM [falling, single point] |
| Cc1noc(C)c1COC(=O)c1cccnc1SCC(=O)Nc1ccc2c(c1)OCO2 | 15.8 µM [rising, partial curve] | – |
| CC(C)Oc1ccc(CNC(=O)c2sc3ncccc3c2-n2cccc2)cc1 | 17.8 µM [falling, partial curve, poor fit] | – |
| CC(C)C(OC(=O)c1cc2sccc2n1C)C(=O)NCC1CCCO1 (stereo not given) | 25.1 µM [rising, single point] | – |
| CCc1nnc(NC(=O)CSc2nc3cccnc3n2C2CCCCC2)s1 | 35.5 µM [rising, single point] | – |
| COc1ccc(/C=C/C(=O)c2ccc[nH]2)cc1OC | 5.62 µM [rising, partial curve] | – |
| Cc1nc(SCC(=O)Nc2ccc(C)c(Cl)c2)cc(-c2ccccc2)n1 | 0.158 µM [falling, full curve, poor fit] | – |
| Cc1ccc(CCNC(=O)C2CCCN2S(=O)(=O)c2ccc3c(c2)CCC(=O)N3)cc1 (stereo not given) | 15.8 µM [rising, partial curve, poor fit] | – |
| CC(/C=C/c1ccccc1)=N\Nc1nc(C)cc(C)n1 | 8.91 µM [rising, partial curve] | – |
| CCOC(=O)c1cc2c(ccn2C)n1CC(=O)N(Cc1ccccc1)c1ccc(F)cc1 | 12.6 µM [rising, partial curve] | 10 µM [rising, partial curve, poor fit] |
| COc1ccc(Cl)cc1Nc1ncnc2sc(C)c(S(=O)(=O)N3CCC(C)CC3)c12 | 12.6 µM [rising, partial curve, poor fit] | – |
| COc1ccc(NC(=O)c2c(Nc3ccccc3)sc(C(=O)c3ccc(F)cc3)c2N)cc1 | 3.16 µM [rising, full curve, poor fit] | – |
| CC(C)c1ccc(Nc2nnc(SCC(=O)Nc3ncc(S(=O)(=O)c4ccc([N+](=O)[O-])cc4)s3)s2)cc1 | 0.0158 µM [falling, full curve, poor fit] | – |
